Measurements published in patent publication US7205273B2 (The University of British Columbia, priority 1996, dated 2007).

Assay: peptide made by a vendor
Conditions: whole synthesis, amino acid analysis, mass spectrometry and HPLC

In the case of Ac-GLFEAIAGFIENGWEGMIDGK, the “final HPLC purity” value is reported as “greater than 95%”.
